These are yes or no findings as the source states them, for the method shown. Binding seen in cells or lysates may run through a third protein. Where a sequence is shown, tags or fusion partners need not be part of it.
Target: T1, N-terminal GFP-tagged Arkadia (Mus musculus) (UniProt Q99ML9)
T1 sequence: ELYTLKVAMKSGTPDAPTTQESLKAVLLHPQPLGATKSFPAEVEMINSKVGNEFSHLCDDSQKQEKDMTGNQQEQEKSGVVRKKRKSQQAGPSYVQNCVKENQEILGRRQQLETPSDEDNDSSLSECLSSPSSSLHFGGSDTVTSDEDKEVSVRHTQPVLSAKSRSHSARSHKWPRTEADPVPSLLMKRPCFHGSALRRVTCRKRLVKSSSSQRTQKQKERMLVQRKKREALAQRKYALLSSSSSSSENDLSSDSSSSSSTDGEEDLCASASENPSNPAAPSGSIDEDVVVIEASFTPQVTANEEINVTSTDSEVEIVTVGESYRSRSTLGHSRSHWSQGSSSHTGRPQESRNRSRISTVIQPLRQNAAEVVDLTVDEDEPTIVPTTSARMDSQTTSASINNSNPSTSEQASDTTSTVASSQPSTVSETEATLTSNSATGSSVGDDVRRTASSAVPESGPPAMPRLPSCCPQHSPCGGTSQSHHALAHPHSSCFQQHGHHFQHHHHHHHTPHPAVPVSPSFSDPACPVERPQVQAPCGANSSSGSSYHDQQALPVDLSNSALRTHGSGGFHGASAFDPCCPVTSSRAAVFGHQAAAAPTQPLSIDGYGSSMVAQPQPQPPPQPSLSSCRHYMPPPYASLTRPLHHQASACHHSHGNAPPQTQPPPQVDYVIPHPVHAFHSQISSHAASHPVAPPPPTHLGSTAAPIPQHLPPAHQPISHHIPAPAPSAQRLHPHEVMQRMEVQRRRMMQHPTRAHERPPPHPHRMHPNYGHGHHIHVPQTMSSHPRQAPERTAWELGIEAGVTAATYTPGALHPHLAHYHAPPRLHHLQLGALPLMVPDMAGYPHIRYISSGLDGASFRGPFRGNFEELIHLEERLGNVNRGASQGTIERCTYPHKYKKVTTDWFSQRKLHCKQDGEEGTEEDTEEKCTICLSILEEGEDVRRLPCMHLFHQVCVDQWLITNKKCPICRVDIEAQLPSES
Assay: co-IP; IP with anti-GFP antibody from 293T cells transfected with ALK6*, all three myc-Smad1/5/8 plasmids and GFP or GFP-tagged Arkadia constructs; blotted with anti-P-Smad1/5/8 or anti-GFP

Chains of the proteins cited; added tags and fusions are not shown.
UniProt O15198: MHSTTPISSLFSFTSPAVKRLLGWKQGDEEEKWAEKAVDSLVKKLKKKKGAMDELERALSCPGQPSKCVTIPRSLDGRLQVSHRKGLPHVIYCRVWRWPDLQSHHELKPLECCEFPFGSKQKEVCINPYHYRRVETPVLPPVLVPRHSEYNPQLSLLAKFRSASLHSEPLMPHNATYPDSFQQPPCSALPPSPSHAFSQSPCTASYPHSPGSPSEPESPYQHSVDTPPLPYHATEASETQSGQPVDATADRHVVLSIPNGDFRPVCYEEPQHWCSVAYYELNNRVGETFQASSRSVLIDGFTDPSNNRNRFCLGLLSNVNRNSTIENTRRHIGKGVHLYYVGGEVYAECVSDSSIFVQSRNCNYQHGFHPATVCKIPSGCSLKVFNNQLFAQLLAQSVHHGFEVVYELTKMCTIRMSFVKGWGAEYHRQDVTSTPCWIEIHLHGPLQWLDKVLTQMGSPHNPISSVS
UniProt Q99717: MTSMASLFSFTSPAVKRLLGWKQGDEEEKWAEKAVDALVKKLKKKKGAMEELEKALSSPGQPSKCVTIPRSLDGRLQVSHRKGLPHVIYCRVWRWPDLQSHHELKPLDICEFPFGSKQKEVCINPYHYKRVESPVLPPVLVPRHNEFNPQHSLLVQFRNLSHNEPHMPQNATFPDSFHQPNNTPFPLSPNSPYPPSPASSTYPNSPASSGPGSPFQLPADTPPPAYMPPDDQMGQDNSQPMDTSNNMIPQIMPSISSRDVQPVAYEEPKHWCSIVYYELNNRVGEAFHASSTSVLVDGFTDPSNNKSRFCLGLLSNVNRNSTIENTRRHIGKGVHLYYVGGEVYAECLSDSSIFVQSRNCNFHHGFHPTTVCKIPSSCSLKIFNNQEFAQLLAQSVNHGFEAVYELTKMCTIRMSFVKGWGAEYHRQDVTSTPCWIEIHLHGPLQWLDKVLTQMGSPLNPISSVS
UniProt Q15797: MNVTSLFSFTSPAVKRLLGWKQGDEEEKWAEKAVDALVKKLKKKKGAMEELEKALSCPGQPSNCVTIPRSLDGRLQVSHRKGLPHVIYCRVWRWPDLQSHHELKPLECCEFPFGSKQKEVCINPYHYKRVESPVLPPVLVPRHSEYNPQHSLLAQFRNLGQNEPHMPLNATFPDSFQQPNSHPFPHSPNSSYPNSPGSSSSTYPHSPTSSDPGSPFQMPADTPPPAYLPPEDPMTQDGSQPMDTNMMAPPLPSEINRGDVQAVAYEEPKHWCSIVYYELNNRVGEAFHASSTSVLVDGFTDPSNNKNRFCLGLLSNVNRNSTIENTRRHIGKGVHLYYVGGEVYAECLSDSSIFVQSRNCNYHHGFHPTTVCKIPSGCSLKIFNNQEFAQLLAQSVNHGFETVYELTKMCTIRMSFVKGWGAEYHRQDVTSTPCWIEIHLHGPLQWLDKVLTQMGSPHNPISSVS

| binding | Substance |
| --- | --- |
| no binding | phosphorylated myc-Smad8 (from UniProt O15198 1-467) |
| no binding | phosphorylated myc-Smad5 (from UniProt Q99717 1-465) |
| no binding | phosphorylated myc-Smad1 (from UniProt Q15797 1-465) |
